# Measured values published in article PMC7862700.
# Protein sequences, listed by entry. Tags and fused reporters are not part of them. Lines headed by an entry give the natural chain unless they say otherwise; changes in a name come on top.
# UniProt O43186: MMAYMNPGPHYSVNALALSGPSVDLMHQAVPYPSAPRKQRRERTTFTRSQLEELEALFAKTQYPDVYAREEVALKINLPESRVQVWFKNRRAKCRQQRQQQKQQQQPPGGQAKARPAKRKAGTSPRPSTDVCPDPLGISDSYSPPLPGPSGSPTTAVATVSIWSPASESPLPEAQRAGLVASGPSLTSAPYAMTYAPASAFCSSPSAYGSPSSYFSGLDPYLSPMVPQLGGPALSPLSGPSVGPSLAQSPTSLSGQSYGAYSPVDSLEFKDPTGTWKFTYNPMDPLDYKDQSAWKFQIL
# The list shows a part of the results, in another mix than the full data. At the low end of the ranking the order means little.
# What was measured:
# CRX = CRX (UniProt O43186); assay: DAPPL (digital affinity profiling via proximity ligation, sequencing); conditions: 10 mM Tris-HCl pH 7.5, 50 mM NaCl, 1 mM DTT, 4% glycerol, room temperature, 30 min; GST-TFs on glutathione beads, 16-mer random dsDNA library, 0.1% …; high values mean tight binding; double strand, one strand shown; scale: fold enrichment (6-mer frequency, TF over GST control)
# ELF5 = target: T1, ELF5 (UniProt Q9UKW6-2); assay: as above; conditions: 10 mM Tris-HCl pH 7.5, 50 mM NaCl, 1 mM DTT, 4% glycerol, room temperature, 30 min; GST-TFs on glutathione beads, 16-mer random dsDNA library, 0.1% …; high values mean tight binding; double strand, one strand shown; scale: fold enrichment (6-mer frequency, TF over GST control)
# T1 sequence: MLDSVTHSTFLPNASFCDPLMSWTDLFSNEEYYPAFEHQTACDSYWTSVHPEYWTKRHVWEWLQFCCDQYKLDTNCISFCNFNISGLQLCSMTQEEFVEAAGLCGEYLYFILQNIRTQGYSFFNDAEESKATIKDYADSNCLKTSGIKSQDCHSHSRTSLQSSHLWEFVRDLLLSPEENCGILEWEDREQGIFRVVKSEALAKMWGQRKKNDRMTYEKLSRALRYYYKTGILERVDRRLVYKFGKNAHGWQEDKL
Sequence,binding signal (CRX),binding signal (ELF5)
TGACTG,0.799,0.95
CAGCAT,0.897,0.958
ACCACG,0.853,1.02
TGCCTT,1.33,1.39
ACAGGA,0.653,1.28
TTGAAA,1.24,1.03
TGGCTC,1.3,1.21
ACCAAA,0.955,0.999
TTGCCA,1.06,1.04
CGCCAA,0.9,0.988
TGGGAC,0.695,0.858
CACATC,0.868,1.42
CAAGCA,0.975,1.11
TGCCAT,0.963,1.08
TGTACC,0.919,1.27
ATAGGC,1.14,0.971
ATTGGC,1.07,1.08
GTTGCC,0.702,0.889
GGAAGT,0.493,3.88
TGCGCA,0.958,1.06
AGCCAC,0.875,0.907

# Part of the list above, as tab-separated lines:
Sequence	binding signal (CRX)	binding signal (ELF5)
TGCCTT	1.33	1.39
ACAGGA	0.653	1.28
TTGAAA	1.24	1.03
TGGCTC	1.3	1.21
ACCAAA	0.955	0.999
TTGCCA	1.06	1.04
CGCCAA	0.9	0.988
TGGGAC	0.695	0.858
CACATC	0.868	1.42

# Next entries:

Sequence,binding signal (CRX),binding signal (ELF5)
GATAGC,0.902,0.993
GCTGCA,0.772,0.904
AGTATG,0.782,1.06
CTTGGC,1.03,1.12
ACGAAA,1.09,1.09
ACCTTA,1.43,1.26
CGCACT,0.946,1.23
GCCCGA,0.884,0.939
TACTGT,1.11,1.14
AGTGTA,0.808,0.989
GAAGCC,0.795,1.07
TGGCCA,0.856,0.984
CAAATC,1.69,1.08
CCTGCG,1.05,1.3
TAATTA,2.74,1.2
ACGCGC,0.867,0.93
GTAACC,0.808,1.07
TTATAA,2.9,1.19
TGGCTG,0.899,1.01
CGATCA,1.16,0.959
